{"source": "the supplement of paper PMC8732350", "note": "Where a name gives a salt, the structure may show the parent alone. ± gives the standard deviation of the averaged measurements. This is one part of the list. Single values are uncertain here, since repeats match poorly."}
{"system": "A549", "test": "surface PD-L1 immunofluorescence intensity relative to IFN-gamma-only control (ratio); higher = more PD-L1 expression", "settings": "10 µM; exposure time 24 h; IFN-gamma 100 ng/mL"}
{"compound": "COc1cccc(OC)c1OCCNCC1COc2ccccc2O1", "note": "(stereo unspecified) [WB 4101 hydrochloride]", "surface PD-L1 immunofluorescence intensity": 0.996}
{"compound": "O=C1NCN(c2ccccc2)C12CCN(CCCC(c1ccc(F)cc1)c1ccc(F)cc1)CC2", "note": "[Fluspirilen]", "surface PD-L1 immunofluorescence intensity": 1.12}
{"compound": "O=C1NCN(c2ccccc2)C12CCN(CCCC(c1ccc(F)cc1)c1ccc(F)cc1)CC2", "note": "[Fluspirilene]", "surface PD-L1 immunofluorescence intensity": "0.94 ± 0.11"}
{"compound": "CC(C)(C)C(=O)OCOC(=O)[C@@H]1N2C(=O)[C@@H](NC(=O)[C@H](N)c3ccccc3)[C@H]2SC1(C)C", "note": "[Pivampicillin]", "surface PD-L1 immunofluorescence intensity": 0.979}
{"compound": "CC1(C)Oc2ccc(C#N)cc2[C@H](N2CCCC2=O)[C@H]1O", "note": "[Cromakalim]", "surface PD-L1 immunofluorescence intensity": 1}
{"compound": "N[C@@H]1CCCCN(c2c(F)cc3c(=O)c(C(=O)O)cn(C4CC4)c3c2Cl)C1", "note": "[Besifloxacin HCl (Besivance)]", "surface PD-L1 immunofluorescence intensity": 0.988}
{"compound": "CC[C@H]1OC(=O)[C@H](C)[C@@H](O[C@H]2C[C@@](C)(OC)[C@@H](O)[C@H](C)O2)[C@H](C)[C@@H](O[C@@H]2O[C@H](C)C[C@H](N(C)C)[C@H]2O)[C@](C)(OC)C[C@@H](C)C(=O)[C@H](C)[C@@H](O)[C@]1(C)O", "note": "[Clarithromycin]", "surface PD-L1 immunofluorescence intensity": 1.09}
{"compound": "CC[C@H]1OC(=O)[C@H](C)[C@@H](O[C@H]2C[C@@](C)(OC)[C@@H](O)[C@H](C)O2)[C@H](C)[C@@H](O[C@@H]2O[C@H](C)C[C@H](N(C)C)[C@H]2O)[C@](C)(OC)C[C@@H](C)C(=O)[C@H](C)[C@@H](O)[C@]1(C)O", "note": "[Clarithromycin (Biaxin, Klacid)]", "surface PD-L1 immunofluorescence intensity": 0.963}
{"compound": "CCOc1ccccc1OCC1CNCCO1", "note": "(stereo unspecified) [Viloxazine hydrochloride]", "surface PD-L1 immunofluorescence intensity": 0.991}
{"compound": "NC(=O)Cc1cccc(C(=O)c2ccccc2)c1N", "note": "[Nepafenac]", "surface PD-L1 immunofluorescence intensity": 0.99}
{"compound": "C[C@H]1COC2=C1C(=O)C(=O)c1c2ccc2c1CCCC2(C)C", "note": "[Cryptotanshinone]", "surface PD-L1 immunofluorescence intensity": 0.981}
{"compound": "CN(C)CC[C@H](CSc1ccccc1)Nc1ccc(S(=O)(=O)NC(=O)c2ccc(N3CCN(Cc4ccccc4-c4ccc(Cl)cc4)CC3)cc2)cc1[N+](=O)[O-]", "surface PD-L1 immunofluorescence intensity": 1.24}
{"compound": "CCCCC1=NC2(CCCC2)C(=O)N1Cc1ccc(-c2ccccc2-c2nnn[nH]2)cc1", "note": "[Irbesartan (Avapro)]", "surface PD-L1 immunofluorescence intensity": 1.09}
{"compound": "CCCCOC(=O)c1ccc(N)cc1", "note": "[Butamben]", "surface PD-L1 immunofluorescence intensity": 0.999}
{"compound": "COc1cc(Cc2cnc(N)nc2N)cc(OC)c1OC", "note": "[Trimethoprim]", "surface PD-L1 immunofluorescence intensity": 0.919}
{"compound": "COc1cc2c(cc1OC)CN(CCc1ccc(NC(=O)c3cc(OC)c(OC)cc3NC(=O)c3cnc4ccccc4c3)cc1)CC2", "note": "[Tariquidar]", "surface PD-L1 immunofluorescence intensity": 1.05}
{"compound": "CN(C(=O)c1ccc(F)cc1C(F)(F)F)C1CCN(c2nnc(-c3ccnn3C)c3ccccc23)CC1", "surface PD-L1 immunofluorescence intensity": 1}
{"compound": "FC(F)(F)c1cc(COC2CCCNC2c2ccccc2)cc(C(F)(F)F)c1", "note": "[L-733,060 hydrochloride]", "surface PD-L1 immunofluorescence intensity": 0.934}
{"compound": "CCN(CC)CCOC(=O)C(c1ccccc1)C1CCCCC1", "note": "(stereo unspecified) [Drofenine hydrochloride]", "surface PD-L1 immunofluorescence intensity": 1.02}
{"compound": "COc1ccc([C@H]2CNC(=O)C2)cc1OC1CCCC1", "note": "[(S)-(+)-Rolipram]", "surface PD-L1 immunofluorescence intensity": 0.96}
{"compound": "COc1ccc([C@H]2CNC(=O)C2)cc1OC1CCCC1", "note": "[S- (+)-Rolipram]", "surface PD-L1 immunofluorescence intensity": 1.09}
{"compound": "C=CC(=O)c1ccc2ccccc2c1", "surface PD-L1 immunofluorescence intensity": 0.87}
{"compound": "NS(=O)(=O)c1cccc2c1c([N+](=O)[O-])cc1nc(O)c(O)nc12", "surface PD-L1 immunofluorescence intensity": 0.954}
{"compound": "NS(=O)(=O)c1cccc2c1c([N+](=O)[O-])cc1nc(O)c(O)nc12", "note": "[NBQX disodium salt]", "surface PD-L1 immunofluorescence intensity": 1.08}
{"compound": "CCCCC(CC)CN1CN(CC(CC)CCCC)CC(C)(N)C1", "note": "(stereo unspecified) [Hexetidine]", "surface PD-L1 immunofluorescence intensity": 1.03}
{"compound": "COc1cc2c(cc1OC)C(=O)C(CC1CCN(Cc3ccccc3)CC1)C2", "note": "(stereo unspecified) [Donepezil HCl (Aricept)]", "surface PD-L1 immunofluorescence intensity": 0.781}
{"compound": "O=C(CCCN1CCC(O)(c2ccc(Br)cc2)CC1)c1ccc(F)cc1", "note": "[Bromperidol]", "surface PD-L1 immunofluorescence intensity": 1.09}
{"compound": "CNCC[C@H](Oc1cccc2ccccc12)c1cccs1", "note": "[Duloxetine HCl (Cymbalta)]", "surface PD-L1 immunofluorescence intensity": 1.13}
{"compound": "CO[C@@]1(NC(=O)Cc2cccs2)C(=O)N2C(C(=O)O)=C(COC(N)=O)CS[C@@H]21", "note": "[Cefoxitin sodium salt]", "surface PD-L1 immunofluorescence intensity": 0.967}
{"compound": "C[C@]12CC[C@H]3C(=CCc4cc(O)ccc43)[C@@H]1CCC2=O", "note": "[Equilin]", "surface PD-L1 immunofluorescence intensity": 0.958}
{"compound": "CNC(=O)[C@H]1O[C@@H](n2cnc3c(NCc4cccc(I)c4)ncnc32)[C@H](O)[C@@H]1O", "surface PD-L1 immunofluorescence intensity": 0.99}
{"compound": "C=C[C@H]1CN2CC[C@H]1C[C@@H]2[C@@H](O)c1ccnc2ccc(OC)cc12", "note": "[Quinidine hydrochloride monohydrate]", "surface PD-L1 immunofluorescence intensity": 1.01}
{"compound": "NC(=O)N1c2ccccc2CC(O)c2ccccc21", "note": "(stereo unspecified) [Licarbazepine]", "surface PD-L1 immunofluorescence intensity": 1.01}
{"compound": "Cc1cccc(C)c1NC(=O)C1CCCCN1C", "note": "(stereo unspecified) [Mepivacaine hydrochloride]", "surface PD-L1 immunofluorescence intensity": 0.951}
{"compound": "CCc1nc(-c2cccc(C)c2)c(-c2ccnc(NC(=O)c3ccccc3)c2)s1", "surface PD-L1 immunofluorescence intensity": "0.97 ± 0.014"}
{"compound": "CN1C(C(=O)Nc2ccccn2)=C(O)c2sccc2S1(=O)=O", "note": "[Tenoxicam]", "surface PD-L1 immunofluorescence intensity": 0.945}
{"compound": "Cc1ncc([N+](=O)[O-])n1CC(O)CCl", "note": "(stereo unspecified) [Ornidazole]", "surface PD-L1 immunofluorescence intensity": 0.971}
{"compound": "O=C(CCCCCCC(=O)NO)NO", "note": "[Suberoyl bis-hydroxamic acid]", "surface PD-L1 immunofluorescence intensity": 0.968}
{"compound": "Cn1c(=O)c2[nH]cnc2n(C)c1=O", "note": "[Aminophylline]", "surface PD-L1 immunofluorescence intensity": 1.06}
{"compound": "CS(=O)(=O)c1ccc(C2=C(c3ccccc3)C(=O)OC2)cc1", "note": "[Rofecoxib]", "surface PD-L1 immunofluorescence intensity": 0.996}
{"compound": "CN(C)CCC=C1c2ccccc2CCc2ccccc21", "note": "[Amitryptiline hydrochloride]", "surface PD-L1 immunofluorescence intensity": 0.851}
{"compound": "Cc1ccnc2c1NC(=O)c1cccnc1N2C1CC1", "note": "[Nevirapine (Viramune)]", "surface PD-L1 immunofluorescence intensity": 1.09}
{"compound": "Cc1[nH]c(=O)c(C#N)cc1-c1ccncc1", "note": "[Milrinone]", "surface PD-L1 immunofluorescence intensity": 1.06}
{"compound": "O=c1cc(N2CCNCC2)oc2c(-c3ccccc3)cccc12", "surface PD-L1 immunofluorescence intensity": 1.09}
{"compound": "COc1cc2ncc(-c3ccccc3)nc2cc1OC", "note": "[Tyrphostin AG 1296 (AG 1296)]", "surface PD-L1 immunofluorescence intensity": 0.955}
{"compound": "COc1ccc(C(=O)Nc2sc3c(c2C(N)=O)CCCC3)cc1OC", "surface PD-L1 immunofluorescence intensity": "0.97744 ± 0.00031"}
{"compound": "CC(N)(Cc1ccc(O)c(O)c1)C(=O)O", "note": "[L-(-)- _-Methyldopa]", "surface PD-L1 immunofluorescence intensity": 1.06}
{"compound": "O=NO", "note": "[Sodium Nitrite]", "surface PD-L1 immunofluorescence intensity": 1.09}
{"compound": "CN(C)CC/C=C1\\c2ccccc2CSc2ccccc21", "note": "[Dosulepin hydrochloride]", "surface PD-L1 immunofluorescence intensity": 0.977}
{"compound": "COc1cc(Nc2ncc(F)c(Nc3ccc4c(n3)NC(=O)C(C)(C)O4)n2)cc(OC)c1OC", "surface PD-L1 immunofluorescence intensity": 0.784}
{"compound": "CC(C)(Oc1ccc(Cl)cc1)C(=O)O", "note": "[Clofibric acid]", "surface PD-L1 immunofluorescence intensity": "0.978 ± 0.029"}
{"compound": "CC(=O)[C@@]1(O)CC[C@H]2[C@@H]3CCC4=CC(=O)CCC4=C3[C@@H](c3ccc(N(C)C)cc3)C[C@@]21C", "note": "[Ulipristal]", "surface PD-L1 immunofluorescence intensity": 0.997}
{"compound": "CC(C)(S)[C@@H](N)C(=O)O", "note": "[Penicillamine]", "surface PD-L1 immunofluorescence intensity": 0.955}
{"compound": "Cc1cc(C(=O)NNCc2ccccc2)no1", "note": "[Isocarboxazid]", "surface PD-L1 immunofluorescence intensity": 0.93}
{"compound": "CO[C@H]1C[C@H](O[C@H]2[C@H](C)[C@@H](O[C@@H]3O[C@H](C)C[C@H](N(C)C)[C@H]3OC(C)=O)[C@@H](C)C[C@@]3(CO3)C(=O)[C@H](C)[C@@H](OC(C)=O)[C@@H](C)[C@@H](C)OC(=O)[C@@H]2C)O[C@@H](C)[C@@H]1OC(C)=O", "note": "[Troleandomycin]", "surface PD-L1 immunofluorescence intensity": 0.833}
{"compound": "COc1ccc(-c2ccc(=N)n(CCCC(=O)O)n2)cc1", "note": "[Gabazine bromide]", "surface PD-L1 immunofluorescence intensity": 1.02}
{"compound": "COc1ccc(-c2ccc(=N)n(CCCC(=O)O)n2)cc1", "surface PD-L1 immunofluorescence intensity": 1}
{"compound": "CCCCCCCCCCC[C@@H](C[C@@H]1OC(=O)[C@H]1CCCCCC)OC(=O)[C@H](CC(C)C)NC=O", "note": "[Orlistat]", "surface PD-L1 immunofluorescence intensity": 1.01}
{"compound": "CCCCCCCCCCC[C@@H](C[C@@H]1OC(=O)[C@H]1CCCCCC)OC(=O)[C@H](CC(C)C)NC=O", "note": "[Orlistat (Alli, Xenical)]", "surface PD-L1 immunofluorescence intensity": 0.929}
{"compound": "CC1(C)CCC(CN2CCN(c3ccc(C(=O)NS(=O)(=O)c4ccc(NCC5CCOCC5)c([N+](=O)[O-])c4)c(Oc4cnc5[nH]ccc5c4)c3)CC2)=C(c2ccc(Cl)cc2)C1", "surface PD-L1 immunofluorescence intensity": 1.12}
{"compound": "Cn1c(=O)c2c(ncn2CC(=O)O)n(C)c1=O", "note": "[Acefylline]", "surface PD-L1 immunofluorescence intensity": 0.978}
{"compound": "Nc1nc(N)c2nc(-c3cccc(O)c3)cnc2n1", "surface PD-L1 immunofluorescence intensity": "1.0217 ± 0.00086"}
{"compound": "CCN1C(=O)NC(c2ccccc2)C1=O", "note": "(stereo unspecified) [Ethotoin]", "surface PD-L1 immunofluorescence intensity": 1}
{"compound": "CN1CCCC(CC2c3ccccc3Sc3ccccc32)C1", "note": "(stereo unspecified) [Metixene hydrochloride]", "surface PD-L1 immunofluorescence intensity": 0.939}
{"compound": "COc1ccccc1N1CCN(CC(O)COc2cccc3ccccc23)CC1", "note": "(stereo unspecified) [Naftopidil hydrochloride]", "surface PD-L1 immunofluorescence intensity": 0.992}
{"compound": "COc1ccccc1N1CCN(CC(O)COc2cccc3ccccc23)CC1", "note": "(stereo unspecified) [Naftopidil dihydrochloride]", "surface PD-L1 immunofluorescence intensity": 0.901}
{"compound": "CN1CCC(=C2c3ccccc3CC(=O)c3sccc32)CC1", "note": "[Ketotifen fumarate]", "surface PD-L1 immunofluorescence intensity": "0.937 ± 0.037"}
{"compound": "O=C(O)CC[C@H]1CC[C@@](c2cc(F)ccc2F)(S(=O)(=O)c2ccc(Cl)cc2)CC1", "surface PD-L1 immunofluorescence intensity": 0.864}
{"compound": "COc1ccc2c(c1)N(C[C@H](C)CN(C)C)c1ccccc1S2", "note": "[Methotrimeprazine maleat salt]", "surface PD-L1 immunofluorescence intensity": 0.877}
{"compound": "CC[C@H](CC[C@@H](C)[C@H]1CC[C@H]2[C@@H]3CC=C4C[C@@H](O)CC[C@]4(C)[C@H]3CC[C@]12C)C(C)C", "note": "[?-Sitosterol]", "surface PD-L1 immunofluorescence intensity": 1.03}
{"compound": "CCCN(CCC)C(=O)C(CCC(=O)O)NC(=O)c1ccccc1", "note": "(stereo unspecified) [Proglumide]", "surface PD-L1 immunofluorescence intensity": 0.862}
{"compound": "COc1cc(OC)c(C(=O)CCCN2CCCC2)c(OC)c1", "note": "[Buflomedil hydrochloride]", "surface PD-L1 immunofluorescence intensity": 0.957}
{"compound": "N#CC(c1ccc(Cl)cc1)c1c(Cl)cc(-n2ncc(=O)[nH]c2=O)cc1Cl", "note": "(stereo unspecified) [Diclazuril]", "surface PD-L1 immunofluorescence intensity": 0.932}
{"compound": "O=c1ccc2ccc(O)c(O)c2o1", "note": "[Daphnetin]", "surface PD-L1 immunofluorescence intensity": 0.93}
{"compound": "Cc1ccc(NC(=O)C(C)C)cc1C1CCN(Cc2ccc(Oc3ccc(F)c(F)c3)cc2)CC1", "surface PD-L1 immunofluorescence intensity": 1.08}
{"compound": "Nc1ccc(-c2nc3ccc(-c4nc5ccc(N)cc5[nH]4)cc3[nH]2)cc1", "surface PD-L1 immunofluorescence intensity": 0.999}
